Source: PubChem BioAssay AID1224904 (Broad Institute, 2016).

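293T-iDUX4 cells carrying a ZSCAN4-driven Gaussia luciferase and a tet-on Italica luciferase control; the gap between the two luminescence signals is read after 24 h. The test concentration is not given here. Percent difference between the Gaussia and Italica channels; more negative values mean more selective suppression of the DUX4 reporter, and higher values mean less activity.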

Values are in %. The controls that fix the scale are not given here. Common to all entries: measured here: selective DUX4 reporter inhibition. This is a side read-out of the assay, for part of the compounds, not drawn at random.

SMILES,Gaussia minus Italica difference (%)
O=C(C[C@H]1CC[C@@H]2[C@H](COC[C@H](O)CN2Cc2ccc(Oc3ccccc3)cc2)O1)N1CCCCC1,2.046
CO[C@@H]1CN(C)C(=O)c2ccc(NC(=O)Nc3ccc4c(c3)OCO4)cc2OC[C@@H](C)NC[C@@H]1C,-23.94
OC[C@@H]1Nc2ccc(C#Cc3cccnc3)cc2[C@@H]2NCC[C@H]12,-11.95
O=C(Cc1cccnc1)N1CC(=O)N2[C@H](C1)[C@H](c1ccc(/C=C/c3ccccc3)cc1)[C@@H]2CO,10.34
CCS(=O)(=O)N1CC2(CN(Cc3ccccc3F)[C@H](CO)c3[nH]c4cc(OC)ccc4c32)C1,-24.03
CC(C)NC(=O)N1CCCCN2[C@H](C1)[C@@H](c1ccc(C#Cc3ccccc3)cc1)[C@@H]2CO,-10.19
COc1ccccc1CNC(=O)C[C@@H]1C[C@H]2c3cc(NS(=O)(=O)c4ccc(F)cc4)ccc3O[C@H]2[C@H](CO)O1,-3.896
COc1ccc2c3c(n(C)c2c1)[C@H](CO)N(Cc1ccccc1)CC31CCN(CC2CC2)CC1,10.35
O=C(C[C@@H]1CC[C@@H]2[C@H](COC[C@H](O)CN2Cc2ccc(Cl)cc2)O1)NCc1cccc(F)c1,-15.94
COc1ccc(S(=O)(=O)N(C)C[C@@H]2OCc3ccccc3-c3c(n(C)c4ccccc34)C(=O)N([C@@H](C)CO)C[C@H]2C)cc1,-13.54
O=C(c1cccnc1)N1CC[C@@H]2[C@H](CO)Nc3ccc(-c4ccc(F)cc4)cc3[C@@H]21,-1.355
CC(C)[C@H](C)NC(=O)N(C)C[C@@H]1OCc2ccccc2-c2c(n(C)c3ccccc23)C(=O)N([C@@H](C)CO)C[C@@H]1C,-15.74
Cc1ccccc1S(=O)(=O)N(C)C[C@@H]1OCc2ccccc2-c2ccccc2C(=O)N([C@H](C)CO)C[C@@H]1C,-13.29
CCCN1[C@@H]2c3ccc(-c4cccc(F)c4)c(=O)n3C[C@@H]2[C@@H](CO)[C@@H]1C(=O)N[C@@H](C)c1ccccc1,2.46
CO[C@H]1CN(C)C(=O)c2ccc(NC(=O)c3nc4ccccc4s3)cc2OC[C@@H](C)N(Cc2cccnc2)C[C@H]1C,-17.53
O=C(CC1CC1)N1[C@@H](CO)[C@@H](c2ccccc2)C12CN(Cc1cc(F)ccc1F)C2,-11.63
COc1ccc2c3c(n(C)c2c1)[C@@H](CO)N(C(=O)Nc1ccc(F)cc1)CC31CN(Cc2cccc(F)c2)C1,8.279
Cc1cccc(S(=O)(=O)N2CC[C@@H]3[C@H]2c2cc(-c4cccc(C#N)c4)ccc2N(C)[C@H]3CO)c1,-7.413
O=C(CC1CC1)N1CC(=O)N2[C@H](C1)[C@@H](c1ccc(C#Cc3cccc(F)c3)cc1)[C@@H]2CO,-0.8174
COc1ccc(C#Cc2ccc([C@H]3[C@H]4CN(C)CCCCN4[C@H]3CO)cc2)cc1,-9.409
C[C@H]1CN([C@@H](C)CO)C(=O)c2c(c3ccccc3n2C)-c2ccccc2CO[C@@H]1CN(C)C(=O)Nc1ccc(-c2ccccc2)cc1,-20.53
C[C@@H]1CN([C@@H](C)CO)C(=O)CCCn2nncc2CO[C@@H]1CN(C)Cc1ccc(Cl)c(Cl)c1,-13.54
CN(C)C(=O)c1cccc(-c2ccc3c(c2)[C@@H]2[C@@H](CCN2C(=O)c2ccccc2F)[C@@H](CO)N3)c1,8.164
O=C(Cc1ccccn1)N[C@@H]1CC[C@@H](CCn2cc(-c3ccc(F)cc3)nn2)O[C@@H]1CO,-7.91
N#Cc1cccc(-c2ccc([C@H]3[C@H](CO)N4CCCCN(C(=O)Nc5cccc(F)c5)C[C@@H]34)cc2)c1,0.9102
COc1ccc2c3c(n(C)c2c1)[C@@H](CO)N(C(=O)Nc1ccc(F)cc1)CC31CCN(C(=O)c2ccc3c(c2)OCO3)CC1,-15.9
C/C=C/c1ccc([C@@H]2[C@@H](CO)N(C(=O)NC(C)C)C23CN(Cc2ccc(OC)cc2)C3)cc1,-12.33
O=C(C[C@@H]1CC[C@H]2[C@@H](COC[C@@H](O)CN2C(=O)c2ccc(F)cc2)O1)NC1Cc2ccccc2C1,-13.33
CO[C@H]1CN(C)C(=O)c2ccc(NC(=O)Nc3ccc(C(F)(F)F)cc3)cc2OC[C@H](C)NC[C@@H]1C,-5.872
COc1ccc2c3c([nH]c2c1)[C@@H](CO)N(Cc1ccccc1)CC31CN(CC2CC2)C1,-6.525
O=C(c1ccc2c(c1)OCO2)N1CC(=O)N2[C@H](C1)[C@@H](c1ccc(C#CC3CCCC3)cc1)[C@@H]2CO,15.32
O=C(C[C@@H]1CC[C@@H]2[C@H](COC[C@@H](O)CN2C(=O)Nc2ccc(Cl)c(Cl)c2)O1)NC1CCC1,-8.823
Cc1noc(C)c1S(=O)(=O)N(C)C[C@@H]1OCc2ccccc2-c2c(n(C)c3ccccc23)C(=O)N([C@@H](C)CO)C[C@@H]1C,-3.775
O=C(C[C@@H]1C[C@H]2c3cc(NC(=O)c4ccc5c(c4)OCO5)ccc3O[C@H]2[C@@H](CO)O1)NCc1ccc(Cl)cc1,-2.245
CN(C)C(=O)c1ccc(-c2ccc3c(c2)[C@H]2[C@H](CCN2C(=O)c2ccc(F)cc2)[C@@H](CO)N3C)cc1,10.09
COc1ccc(C#Cc2ccc3c(c2)[C@H]2[C@H](CCN2Cc2ccncc2)[C@@H](CO)N3)cc1,-13.8
O=C(Nc1cccc(F)c1)N1CC(=O)N2[C@H](CO)[C@H](c3ccc(C#CCC4CCCC4)cc3)[C@@H]2C1,-2.131
O=C(C[C@H]1CC[C@H]2[C@@H](COC[C@H](O)CN2Cc2ccc(Oc3ccccc3)cc2)O1)N1CCc2ccccc2C1,-5.686
COc1cccc(S(=O)(=O)Nc2ccc3c(c2)[C@@H]2C[C@H](CC(=O)N[C@@H](C)c4ccccc4)O[C@@H](CO)[C@@H]2O3)c1,-7.121
COc1ccccc1-c1ccc([C@@H]2[C@@H](CO)N3CCCCN(C(=O)NC4CCCC4)C[C@@H]23)cc1,-11.6
COc1cccc(S(=O)(=O)N2CC[C@@H]3[C@H](CO)Nc4ccc(-c5ccc(C#N)cc5)cc4[C@@H]32)c1,-4.548
O=C(C[C@H]1CC[C@@H]2[C@H](COC[C@@H](O)CN2Cc2ccc(C(F)(F)F)cc2)O1)N1CCc2ccccc2C1,-2.466
O=C(C[C@@H]1CC[C@H]2[C@@H](COC[C@H](O)CN2Cc2cccc(C(F)(F)F)c2)O1)NCc1ccc(Cl)cc1,-11.64
O=S(=O)(c1ccccc1)N1CCCCN2[C@H](CO)[C@H](c3ccc(C#Cc4cccnc4)cc3)[C@H]2C1,1.762
O=C(c1cccc(F)c1)N1CC[C@H]2[C@H](CO)Nc3ccc(-c4cccc(F)c4)cc3[C@H]21,8.692
COc1ccc2c3c([nH]c2c1)[C@H](CO)N(Cc1ccccc1)CC31CCN(C(=O)Cc2ccccc2)CC1,-9.682
CS(=O)(=O)Nc1ccc2c(c1)[C@H]1C[C@@H](CC(=O)NCc3ccc(Oc4ccccc4)cc3)O[C@H](CO)[C@H]1O2,-12.13
O=C(Nc1ccc(F)cc1)N1CCCCN2[C@H](CO)[C@@H](c3ccc(-c4cccc(F)c4)cc3)[C@@H]2C1,-20.49
N#Cc1ccc(-c2ccc3c(c2)[C@@H]2[C@@H](CCN2C(=O)c2ccc4c(c2)OCO4)[C@H](CO)N3)cc1,-7.445
N#Cc1cccc(-c2ccc3c(c2)[C@@H]2[C@@H](CCN2C(=O)c2ccccc2F)[C@H](CO)N3)c1,-0.8268
CC(C)NC(=O)N1CCCCN2[C@H](CO)[C@@H](c3ccc(C#Cc4ccccc4)cc3)[C@@H]2C1,4.086